Experimental data from paper PMC10052876.
These are yes or no findings as the source states them, for the method shown. For part of these data: In cells and extracts the contact can be indirect. Some entries that bind do so weakly or less than the wild type.

Amino acid sequences for entries named in this document (tags omitted). Residues count along the entry.
UniProt O60313, residues 88-960: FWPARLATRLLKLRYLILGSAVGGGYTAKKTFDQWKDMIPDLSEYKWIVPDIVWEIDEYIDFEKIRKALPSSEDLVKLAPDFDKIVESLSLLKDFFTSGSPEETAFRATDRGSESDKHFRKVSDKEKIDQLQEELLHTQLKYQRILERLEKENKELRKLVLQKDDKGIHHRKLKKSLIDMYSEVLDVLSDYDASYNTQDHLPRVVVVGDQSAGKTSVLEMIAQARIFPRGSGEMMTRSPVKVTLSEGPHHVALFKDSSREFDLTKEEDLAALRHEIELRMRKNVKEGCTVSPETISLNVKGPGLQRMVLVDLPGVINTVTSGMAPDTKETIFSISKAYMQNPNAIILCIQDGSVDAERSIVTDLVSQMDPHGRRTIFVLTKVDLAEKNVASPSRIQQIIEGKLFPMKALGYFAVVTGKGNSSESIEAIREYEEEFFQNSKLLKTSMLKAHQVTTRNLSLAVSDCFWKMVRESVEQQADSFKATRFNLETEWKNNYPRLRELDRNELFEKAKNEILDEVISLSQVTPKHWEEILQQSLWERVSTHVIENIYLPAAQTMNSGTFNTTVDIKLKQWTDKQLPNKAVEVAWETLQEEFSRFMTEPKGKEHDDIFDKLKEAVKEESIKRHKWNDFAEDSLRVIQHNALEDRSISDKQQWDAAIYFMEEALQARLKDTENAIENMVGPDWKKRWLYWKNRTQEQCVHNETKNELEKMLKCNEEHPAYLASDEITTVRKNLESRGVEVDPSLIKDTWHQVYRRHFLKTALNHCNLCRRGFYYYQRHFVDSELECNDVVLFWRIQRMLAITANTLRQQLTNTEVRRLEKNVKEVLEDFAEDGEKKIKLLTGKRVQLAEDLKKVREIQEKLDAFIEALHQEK

T1: MFN2 (human (endogenous in fibroblasts)), O95140
T1 chain: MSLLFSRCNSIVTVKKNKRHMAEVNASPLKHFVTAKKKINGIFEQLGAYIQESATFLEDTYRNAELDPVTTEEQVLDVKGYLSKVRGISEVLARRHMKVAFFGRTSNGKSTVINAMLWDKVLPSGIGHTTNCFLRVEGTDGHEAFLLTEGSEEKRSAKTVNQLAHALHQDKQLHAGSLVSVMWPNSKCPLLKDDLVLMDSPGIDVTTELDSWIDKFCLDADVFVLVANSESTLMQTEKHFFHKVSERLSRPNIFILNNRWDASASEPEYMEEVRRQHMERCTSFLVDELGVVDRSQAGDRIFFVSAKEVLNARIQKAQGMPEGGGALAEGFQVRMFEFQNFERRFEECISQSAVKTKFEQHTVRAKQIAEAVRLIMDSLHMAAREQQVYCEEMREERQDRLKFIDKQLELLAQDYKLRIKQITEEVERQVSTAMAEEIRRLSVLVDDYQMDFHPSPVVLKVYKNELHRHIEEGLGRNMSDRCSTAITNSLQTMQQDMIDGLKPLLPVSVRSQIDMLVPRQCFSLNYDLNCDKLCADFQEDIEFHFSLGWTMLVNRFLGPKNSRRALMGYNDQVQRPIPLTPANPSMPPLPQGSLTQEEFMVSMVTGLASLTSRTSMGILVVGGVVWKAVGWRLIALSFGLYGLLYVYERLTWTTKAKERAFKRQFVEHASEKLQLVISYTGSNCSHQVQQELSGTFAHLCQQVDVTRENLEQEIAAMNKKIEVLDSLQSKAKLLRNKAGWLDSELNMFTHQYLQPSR

T2: SLC25A46 (human (endogenous in fibroblasts)), Q96AG3
T2 chain: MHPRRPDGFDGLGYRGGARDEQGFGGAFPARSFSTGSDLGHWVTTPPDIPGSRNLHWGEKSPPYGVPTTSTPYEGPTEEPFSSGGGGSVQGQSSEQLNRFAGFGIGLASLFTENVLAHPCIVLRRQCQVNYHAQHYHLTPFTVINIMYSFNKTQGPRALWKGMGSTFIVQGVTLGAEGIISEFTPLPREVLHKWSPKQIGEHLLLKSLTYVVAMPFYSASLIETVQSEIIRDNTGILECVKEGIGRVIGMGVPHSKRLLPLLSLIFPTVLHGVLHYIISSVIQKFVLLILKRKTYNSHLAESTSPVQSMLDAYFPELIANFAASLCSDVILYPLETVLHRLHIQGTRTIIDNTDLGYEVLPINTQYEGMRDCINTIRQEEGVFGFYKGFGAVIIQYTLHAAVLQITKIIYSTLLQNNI


Assays:
[1] = target: T1, MFN2 (human (endogenous in …)); assay: native gel or EMSA; BN-PAGE (6-15% gradient) of 1% digitonin extracts of crude mitochondria from control human fibroblasts, immunoblot; also two-dimensional BN-PAGE/SDS-PAGE; settings: remark: other sources report otherwise
[2] = target: T2, SLC25A46 (human (endogenous in …)); assay: co-IP; endogenous SLC25A46 or OPA1 immunoprecipitated (antibody cross-linked to Dynabeads Protein A) from control human fibroblast crude mitochondria cross-linked with 1 mM DSP, extracted in 10 mM Tris-HCl pH 7.5, 150 mM NaCl, 1% DDM; overnight at 4°C; immunoblot; settings: remark: other sources report otherwise
[3] = target: OPA1 (human (endogenous in fibroblasts)) (UniProt O60313); assay: as above

| binding [1] | binding [2] | binding [3] | Binder |
| --- | --- | --- | --- |
| binds | binds |  | MFN2, O95140 1-757 (protein) MSLLFSRCNSIVTVKKNKRHMAEVNASPLKHFVTAKKKINGIFEQLGAYIQESATFLEDTYRNAELDPVTTEEQVLDVKGYLSKVRGISEVLARRHMKVAFFGRTSNGKSTVINAMLWDKVLPSGIGHTTNCFLRVEGTDGHEAFLLTEGSEEKRSAKTVNQLAHALHQDKQLHAGSLVSVMWPNSKCPLLKDDLVLMDSPGIDVTTELDSWIDKFCLDADVFVLVANSESTLMQTEKHFFHKVSERLSRPNIFILNNRWDASASEPEYMEEVRRQHMERCTSFLVDELGVVDRSQAGDRIFFVSAKEVLNARIQKAQGMPEGGGALAEGFQVRMFEFQNFERRFEECISQSAVKTKFEQHTVRAKQIAEAVRLIMDSLHMAAREQQVYCEEMREERQDRLKFIDKQLELLAQDYKLRIKQITEEVERQVSTAMAEEIRRLSVLVDDYQMDFHPSPVVLKVYKNELHRHIEEGLGRNMSDRCSTAITNSLQTMQQDMIDGLKPLLPVSVRSQIDMLVPRQCFSLNYDLNCDKLCADFQEDIEFHFSLGWTMLVNRFLGPKNSRRALMGYNDQVQRPIPLTPANPSMPPLPQGSLTQEEFMVSMVTGLASLTSRTSMGILVVGGVVWKAVGWRLIALSFGLYGLLYVYERLTWTTKAKERAFKRQFVEHASEKLQLVISYTGSNCSHQVQQELSGTFAHLCQQVDVTRENLEQEIAAMNKKIEVLDSLQSKAKLLRNKAGWLDSELNMFTHQYLQPSR |
|  |  | binds | SLC25A46 (protein, UniProt Q96AG3 1-418) MHPRRPDGFDGLGYRGGARDEQGFGGAFPARSFSTGSDLGHWVTTPPDIPGSRNLHWGEKSPPYGVPTTSTPYEGPTEEPFSSGGGGSVQGQSSEQLNRFAGFGIGLASLFTENVLAHPCIVLRRQCQVNYHAQHYHLTPFTVINIMYSFNKTQGPRALWKGMGSTFIVQGVTLGAEGIISEFTPLPREVLHKWSPKQIGEHLLLKSLTYVVAMPFYSASLIETVQSEIIRDNTGILECVKEGIGRVIGMGVPHSKRLLPLLSLIFPTVLHGVLHYIISSVIQKFVLLILKRKTYNSHLAESTSPVQSMLDAYFPELIANFAASLCSDVILYPLETVLHRLHIQGTRTIIDNTDLGYEVLPINTQYEGMRDCINTIRQEEGVFGFYKGFGAVIIQYTLHAAVLQITKIIYSTLLQNNI |
